Measured values: PubChem BioAssay AID1487 (National Center for Advancing Translational Sciences (NCATS), 2009)
Out of some 200,000 compounds screened, about 25 (0.01%) were called active. Inconclusive means that the source gave no clear call. Such entries were picked first, then a sample of the others. The call rests on the fitted dose curve; in most records, active means well fitted inhibition curve with a large enough effect in the signal ratio, with a control signal flat (not every such curve was filed as active); inconclusive means small, poorly fitted or top-dose-only effect, or effect the other way, or a change in a side signal; inactive means flat fitted curve, though single readings scatter; the % refers to the signal ratio. A potency beside an inconclusive call is a rough fit, not a confirmed value.

Assay: qHTS Assay for Modulators of Lamin A Splicing
Conditions: HeLa LMNA splicing GFP/RFP minigene ratio, 48 h; ratio change, negative = inhibition: at 46.1 µM (top of the series) unless noted
Outline: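 S3 HeLa stable clones carrying a lamin A-EGFP splicing minigene plus DsRed2 were seeded at 600 cells/well in Opti-MEM with 2% FBS, pin-dosed and incubated 48 h at 37°C. Acumen cytometry (488 nm) gave the GFP/RFP total-intensity ratio.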
On the % scale 0 is the no-effect control and ±100 the full control effect; potency means the concentration at half of the fitted maximal effect.

Row | SMILES | ratio change, negative = inhibition | Potency
1 | CCN(CC)CCN(C(=O)c1ccc(C(=O)OC)cc1)c1nc2ccc(Cl)cc2s1 | inactive | 
2 | N#Cc1cccc(-c2nccc(NCc3cccnc3)n2)c1 | inconclusive: -15.3% | 
3 | CCc1cc(=O)oc2cc(C)c(CN3CCCCC3)c(O)c12 | inactive | 
4 | Cc1ccc(/C=C/C2=Cc3c(sc(NC(=O)CSc4n[nH]c(N)n4)c3C#N)C(C)(C)C2)o1 |  | inconclusive: 11.2 µM [cytotoxic, partial curve]
5 | CCc1ccc2nc(N(Cc3cccnc3)C(=O)c3cccs3)sc2c1 | inactive | 
6 | O=C1CN(CC(=O)Nc2cccc(Cl)c2Cl)c2ccccc2N1 | inactive | 
7 | CC1CCCCN1C(=O)CN1CCC(c2nc3ccc(Cl)cc3[nH]2)CC1 (stereo not drawn) | inconclusive: -14.6% [at 46 µM] | 
8 | OC1CCN(c2c3c(nc4cc(-c5ccc(F)cc5)nn24)CCC3)CC1 | inconclusive: 14.9% | 
9 | CN1CCN(C(=O)c2ccc(CN3CCOCC3)cc2)CC1 | inactive | 
10 | OCC1(Cc2cccc(Cl)c2)CCCN(Cc2sc(N3CCCC3)nc2Cl)C1 (stereo not drawn) | inactive | 
11 | COc1cc(NC(=O)c2ccccc2-c2ccccc2)cc(OC)c1OC | inconclusive: -29.3% [at 46 µM] | 
12 | O=C(N/N=C/C(Br)=C/c1ccccc1)c1cc(-c2ccco2)[nH]n1 |  | inconclusive: 12.6 µM [inhibitor, partial curve]
13 | Cn1c(Oc2ccc(F)cc2F)c(C=O)c2ccccc21 | inconclusive: 1.61% [at 46 µM] | 
14 | CC(C)(C)OC(=O)N1CCC(c2c(C(=O)Nc3ccc4c(c3)OCO4)cnn2-c2ccc(F)cc2F)CC1 | inconclusive: -13.2% [at 46 µM] | 
15 | CSCC[C@H](NC(=O)OC(C)(C)C)c1nnc(SCC=C(C)C)o1 |  | inconclusive: 35.5 µM [fluorescent, single point]
16 | CCc1ccc(NC(=O)CSC2=Nc3ccccc3C3=NC(CC(=O)NCc4ccc5c(c4)OCO5)C(=O)N23)cc1 (stereo not drawn) | inconclusive: -10.2% [at 46 µM] | 
17 | CCCc1cc(C(=O)NNC(=S)Nc2cccc(C)c2)cs1 | inconclusive: -30.9% | 
18 | Cc1nc(-c2ccc(C)c(N3CCN(C(=O)Nc4ccc(Br)cc4)CC3)c2)no1 | inconclusive: -18.3% [at 46 µM] | 
19 | Cc1[nH]c2ccccc2c1C(=O)CSC(=S)N1CCCCC1 | inactive | 
20 | O=C(NCc1ccccc1C(F)(F)F)C12CN(Cc3ccccc3)CC1C(c1ccc([N+](=O)[O-])cc1)=NO2 (stereo not drawn) | inactive | 
21 | CCn1c(SCC(=O)NCCOC)nc2sc3c(c2c1=O)CCCC3 | inconclusive: 16.9% | 
22 | NC(N)=NCc1cccc(I)c1 | inconclusive: 4.27% | 
23 | C=CCN=C1NN=C(c2ccc3c(c2)OCCO3)CS1 | inactive | 

Record cards, as listed above.
CC(C)(C)OC(=O)N1CCC(c2c(C(=O)Nc3ccc4c(c3)OCO4)cnn2-c2ccc(F)cc2F)CC1 as listed: ratio change, negative = inhibition: inconclusive: -13.2% [at 46 µM]
CCCc1cc(C(=O)NNC(=S)Nc2cccc(C)c2)cs1 as listed: ratio change, negative = inhibition: inconclusive: -30.9%
